The test has as its target T1, human KIF1A motor domain and neck linker construct (human) (UniProt Q12756).
T1 sequence: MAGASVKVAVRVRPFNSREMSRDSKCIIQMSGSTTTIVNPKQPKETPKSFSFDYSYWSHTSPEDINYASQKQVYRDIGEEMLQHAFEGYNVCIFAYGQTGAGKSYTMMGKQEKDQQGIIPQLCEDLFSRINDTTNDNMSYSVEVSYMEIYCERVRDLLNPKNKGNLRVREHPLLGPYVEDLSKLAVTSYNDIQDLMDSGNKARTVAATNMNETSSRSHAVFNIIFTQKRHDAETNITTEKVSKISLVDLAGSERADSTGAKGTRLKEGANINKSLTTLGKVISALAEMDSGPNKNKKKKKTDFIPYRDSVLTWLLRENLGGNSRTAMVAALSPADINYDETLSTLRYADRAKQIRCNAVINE
Nature of the test: condition: only on holey gold grids without GO (unsupported ice); cryo-EM 2D classification; purified complex diluted to 0.15 mg/ml in KBP dilution buffer plus 0.2 mM ADP, on holey gold grids without GO; small preliminary data set; both purified.

These are yes or no findings as the source states them, for the method shown.

B1: kinesin-binding protein (protein, UniProt Q96EK5 1-621)
chain: MANVPWAEVCEKFQAALALSRVELHKNPEKEPYKSKYSARALLEEVKALLGPAPEDEDERPEAEDGPGAGDHALGLPAEVVEPEGPVAQRAVRLAVIEFHLGVNHIDTEELSAGEEHLVKCLRLLRRYRLSHDCISLCIQAQNNLGILWSEREEIETAQAYLESSEALYNQYMKEVGSPPLDPTERFLPEEEKLTEQERSKRFEKVYTHNLYYLAQVYQHLEMFEKAAHYCHSTLKRQLEHNAYHPIEWAINAATLSQFYINKLCFMEARHCLSAANVIFGQTGKISATEDTPEAEGEVPELYHQRKGEIARCWIKYCLTLMQNAQLSMQDNIGELDLDKQSELRALRKKELDEEESIRKKAVQFGTGELCDAISAVEEKVSYLRPLDFEEARELFLLGQHYVFEAKEFFQIDGYVTDHIEVVQDHSALFKVLAFFETDMERRCKMHKRRIAMLEPLTVDLNPQYYLLVNRQIQFEIAHAYYDMMDLKVAIADRLRDPDSHIVKKINNLNKSALKYYQLFLDSLRDPNKVFPEHIGEDVLRPAMLAKFRVARLYGKIITADPKKELENLATSLEHYKFIVDYCEKHPEAAQEIEVELELSKEMVSLLPTKMERFRTKMALT
Consider B1, for which the binding result is listed as “no binding”.
